Data as given in PubChem BioAssay AID1259273 (Sanger Institute, 2017)
Test: 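Confirm kinome hits that work in synergy with targeted cancer drugs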 (follow-up of hits). System: human NCI-H630 colorectal cancer cells. Knock-down reagent: single siRNA against human genes. Treatment: anchor drugs BYL719 at 1 µM, cetuximab at 5 µg/ml or trametinib at 10 nM, or DMSO vehicle alone. Measurement: 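Replicate-averaged viability scaled to non-targeting control pool wells, plus per-drug synergy scores comparing knock-down with drug to knock-down only and drug only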. Direction: synergy score with trametinib and synergy score with BYL719 and synergy score with cetuximab: higher = stronger synergy, more synthetic lethal. Active means: 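a duplex counts as synthetic lethal if its averaged synergy score exceeds 0.10 with BYL719, cetuximab or trametinib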.
In all, the deposit lists 160 reagents; shown is a random part of them. Over the whole deposit, 36 (22%) are marked active. 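Four distinct siRNA duplexes per gene; each call applies to one duplex and is not gene-level validation across cell lines.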 A number with no mark means an inactive call. Reagents against one gene are numbered here. Further read-outs or replicates are left out here. Not given: the amount of reagent, the time to read-out.

KCNH8 (GeneID 131096) #1 | synergy score with trametinib: 0.167 (active); synergy score with BYL719: 0.0614; synergy score with cetuximab: -0.0558
KCNH8 (GeneID 131096) #2 | synergy score with trametinib: 0.14 (active); synergy score with BYL719: 0.0794; synergy score with cetuximab: 0.0171
KCNH8 (GeneID 131096) #3 | synergy score with trametinib: -0.0696; synergy score with BYL719: -0.0439; synergy score with cetuximab: -0.097
KCNH8 (GeneID 131096) #4 | synergy score with trametinib: 0.0624; synergy score with BYL719: 0.0285; synergy score with cetuximab: -0.0498
PRAG1 (GeneID 157285) #1 | synergy score with trametinib: 0.0563 (active); synergy score with BYL719: 0.187; synergy score with cetuximab: 0.0399
PRAG1 (GeneID 157285) #2 | synergy score with trametinib: -0.103 (active); synergy score with BYL719: 0.205; synergy score with cetuximab: -0.23
PRAG1 (GeneID 157285) #3 | synergy score with trametinib: -0.103; synergy score with BYL719: -0.104; synergy score with cetuximab: 0.00298
PRAG1 (GeneID 157285) #4 | synergy score with trametinib: 0.0288; synergy score with BYL719: -0.00251; synergy score with cetuximab: 0.0963
MARK3 (GeneID 4140) #1 | synergy score with trametinib: 0.0871; synergy score with BYL719: -0.127; synergy score with cetuximab: -0.0508
MARK3 (GeneID 4140) #2 | synergy score with trametinib: 0.0356; synergy score with BYL719: -0.156; synergy score with cetuximab: -0.0598
MARK3 (GeneID 4140) #3 | synergy score with trametinib: 0.177 (active); synergy score with BYL719: -0.146; synergy score with cetuximab: -0.0283
MARK3 (GeneID 4140) #4 | synergy score with trametinib: 0.00478; synergy score with BYL719: -0.146; synergy score with cetuximab: -0.142
